The whole screen tested about 350,000 compounds, of which about 1,200 (0.34%) were called active. Inconclusive results, whose numbers are uncertain, are shown with a selection of clear calls. Calls come from the whole dose curve; as a rule, active = well fitted inhibition curve with a large enough effect; inconclusive = small, poorly fitted or top-dose-only effect; inactive = no such curve, though single readings can be large or run the other way. Potencies of inconclusive entries are doubtful fits and often do not repeat.
target: DNA repair nuclease/redox regulator APEX1 (Homo sapiens) (UniProt P27695); assay: qHTS Assay for Inhibitors of the Human Apurinic/apyrimidinic Endonuclease 1 (APE1); conditions: recombinant APE1, TAMRA/BHQ-2 abasic DNA cleavage fluorescence; activity change, negative = inhibition: at 65.8 µM (top of the series); note: nearly all actives have a fitted effect of over 55% in size;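 for activity change, negative = inhibition: plate controls were vehicle for no effect and reference inhibitor for full effect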
Procedure, shortened: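 Readout is kinetic fluorescence (ex 525, em 598 nm) from cleavage of 50 nM TAMRA/BHQ-2 THF abasic duplex by 0.75 nM APE1, compound added 15 min beforehand at RT.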
Potency is the fitted concentration of half-maximal effect.

Sequences of proteins named here, by UniProt entry; tags and fusion partners are left off.
UniProt P27695, whole entry, looked up: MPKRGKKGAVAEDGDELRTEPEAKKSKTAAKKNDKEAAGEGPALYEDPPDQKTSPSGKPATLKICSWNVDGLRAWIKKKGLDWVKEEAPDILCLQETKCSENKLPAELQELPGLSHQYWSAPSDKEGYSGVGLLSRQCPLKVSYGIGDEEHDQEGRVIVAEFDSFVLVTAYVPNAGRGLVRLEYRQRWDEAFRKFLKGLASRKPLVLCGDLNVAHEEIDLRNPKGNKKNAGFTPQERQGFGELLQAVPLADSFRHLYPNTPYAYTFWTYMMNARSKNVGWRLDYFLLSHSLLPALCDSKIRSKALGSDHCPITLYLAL

**Q.** With `O=C(CCNS(=O)(=O)c1ccc2[nH]c(=O)oc2c1)NCc1ccccc1` as the molecule, how does the “activity change, negative = inhibition” value read?
**A.** The value was inactive: 24%.

**Q.** For `CC1(C)Oc2ccc3ccc(=O)oc3c2/C(=C/NCCN/C=C2\C(=O)C(C)(C)Oc3ccc4ccc(=O)oc4c32)C1=O`, which Potency is on record?
**A.** Its Potency is inconclusive: 3.98 µM [inhibitor, single point].

**Q.** For `CN(C(=O)C(Cl)Cl)c1ccc(OC(=O)c2ccco2)cc1`, which Potency is on record?
**A.** The Potency was inconclusive: 0.0089 µM [inhibitor, full curve].

**Q.** Which “activity change, negative = inhibition” value does the source give for `O=C(Cc1cccs1)Nc1nnc(-c2ccncc2)s1` here?
**A.** The value was inactive: -5.43%.

**Q.** `Cc1ccccc1-n1c(Cn2c(=O)sc3ccccc32)nnc1SCC(N)=O` was tested. Which Potency did it give?
**A.** The Potency was inconclusive: 44.7 µM [inhibitor, single point].

**Q.** `O=C(c1cc2ccccc2o1)N1CCN(S(=O)(=O)/C=C/c2ccccc2)CC1` was tested. Which Potency did it give?
**A.** Its Potency is inconclusive: 3.98 µM [inhibitor, single point].

**Q.** How did the Potency turn out when `COc1ccccc1NS(=O)(=O)c1ccc(C(=O)OCC(=O)NCc2ccco2)cc1` was run?
**A.** The Potency was inconclusive: 28.2 µM [inhibitor, partial curve].

**Q.** Which “activity change, negative = inhibition” value does the source give for `Cc1cccc(NC(=O)CSc2nc(-c3ccco3)nc3cc(=O)[nH]n23)c1` here?
**A.** The value was inactive: 63.4%.

**Q.** How did the Potency turn out when `O=C(OCc1nc(-c2ccccc2)oc1COC(=O)c1ccco1)c1ccco1` was run?
**A.** The Potency was inconclusive: 44.7 µM [inhibitor, single point].

**Q.** How did the “activity change, negative = inhibition” value turn out when `COc1ccc(-c2cc3nc4n(c(=O)c3s2)CCC4)cc1` was run?
**A.** The value was inactive: 1.07%.

**Q.** `CC(C)C(NC(=O)OCc1ccccc1)C(=O)OCC(=O)NCc1ccco1` (centres undefined) was tested. Which “activity change, negative = inhibition” value did it give?
**A.** The value was inactive: 4.95%.

**Q.** `O=C1Nc2ccccc2C1=Nc1ccc(-c2nnc3n2CCCCC3)cc1` was tested. Which Potency did it give?
**A.** The Potency was inconclusive: 0.112 µM [inhibitor, full curve, poor fit].

**Q.** How did the Potency turn out when `COc1cc(OC)cc(C(=O)NC(=S)Nc2ccc(N3CCCC3)cc2)c1` was run?
**A.** The Potency was inconclusive: 5.62 µM [inhibitor, full curve, poor fit].

**Q.** Which Potency does the source give for `CC(c1ccccc1)C1OCC(C[N+]2(C)CCCCC2)O1` (centres undefined) here?
**A.** Its Potency is inconclusive: 1 µM [inhibitor, single point].

**Q.** Which Potency does the source give for `COc1ccc(C(=O)N2CCC3(CCN(CC(C)C)CC3)CC2)cc1` here?
**A.** The Potency was inconclusive: 0.891 µM [inhibitor, full curve, poor fit].

**Q.** `COc1ccc(Nc2ncnc3c2oc2ccccc23)cc1` was tested. Which Potency did it give?
**A.** Its Potency is inconclusive: 44.7 µM [inhibitor, single point].

**Q.** How did the Potency turn out when `Cc1ccc(N2C(=O)[C@@H]3[C@H](C2=O)C2c4ccccc4C=CN2[C@@H]3C(=O)c2ccco2)cc1` (some centres undefined) was run?
**A.** Its Potency is inconclusive: 25.1 µM [inhibitor, single point].

**Q.** `Cc1cc2c(s1)c1c(n2C)C(=O)N(Cc2ccccc2F)C1` was tested. Which “activity change, negative = inhibition” value did it give?
**A.** The value was inactive: -20.6%.

**Q.** With `CCOC(=O)c1cn(-c2ccccc2)nc1-c1cccnc1` as the molecule, how does the Potency read?
**A.** The Potency was inconclusive: 31.6 µM [inhibitor, single point].
